Measurements reported in PubChem BioAssay AID652243 (Drosophila RNAi Screening Center, 2013).

- Test: 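Fly genes required for human androgen receptor driven transcription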 (primary screen)
- Cells: Drosophila S2R+ cells
- Reagent: long dsRNA against Drosophila genes
- Duration: 72 h (48 h, then 24 h hormone)
- Conditions: synthetic androgen R1881 at 10 nM for 24 h
- Read-out: 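Per-well raw luminescence of the androgen-driven firefly reporter and of the Renilla control, two replicates each, without normalisation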
- Scale: firefly reporter light: higher = more light from androgen-responsive reporter; Renilla control light: higher = more constitutive control signal (cell number, transfection)
- Hit rule: 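Across duplicate plates, a knock-down whose log firefly/Renilla ratio shifted a set fold down or up from the GFP/LacZ control mean was a hit; the downward cut appears as both 1.5 and 3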
- Meaning of the calls: active = hit: reporter lowered or raised; inactive = no hit
The deposit covers about 24,000 reagents; below is a random part of those that have a named target and a result. Over the whole deposit, 246 (1%) were called active. 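Plates not normalised; calls are printed but the firefly/Renilla ratio behind them is not deposited; fold cut for lowering reported inconsistently.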 Raw values are not corrected between plates. The record does not give: the amount of reagent.

What did the screen give for Mgtor (GeneID 36264) [DRSC05958]?
firefly reporter light, replicate 1: 3.59e5; firefly reporter light, replicate 2: 1.11e6; Renilla control light, replicate 1: 9.06e5; Renilla control light, replicate 2: 2.13e6; outcome: inactive

With Paip2 (GeneID 41591) [DRSC14504], what was measured?
firefly reporter light, replicate 1: 64512; firefly reporter light, replicate 2: 40934; Renilla control light, replicate 1: 3.33e5; Renilla control light, replicate 2: 2.68e5; outcome: inactive

For raptor (GeneID 31543) [DRSC18359], how do the results read?
firefly reporter light, replicate 1: 1.32e5; firefly reporter light, replicate 2: 1.11e5; Renilla control light, replicate 1: 1.21e6; Renilla control light, replicate 2: 1.27e6; outcome: inactive

Which result is listed for 5-HT2A (GeneID 40575) [DRSC11990]?
firefly reporter light, replicate 1: 39069; firefly reporter light, replicate 2: 22859; Renilla control light, replicate 1: 2.89e5; Renilla control light, replicate 2: 2.81e5; outcome: inactive

For ctrip (GeneID 40596) [DRSC12242], what does the deposit list?
firefly reporter light, replicate 1: 50690; firefly reporter light, replicate 2: 1.00e5; Renilla control light, replicate 1: 2.04e6; Renilla control light, replicate 2: 2.13e6; outcome: inactive

With ctrip (GeneID 40596) [DRSC12287], what does the deposit list?
firefly reporter light, replicate 1: 33548; firefly reporter light, replicate 2: 29868; Renilla control light, replicate 1: 4.90e5; Renilla control light, replicate 2: 5.67e5; outcome: inactive

How did the screen score ctrip (GeneID 40596) [DRSC22449]?
firefly reporter light, replicate 1: 1.24e5; firefly reporter light, replicate 2: 3.17e5; Renilla control light, replicate 1: 4.01e5; Renilla control light, replicate 2: 8.57e5; outcome: inactive

With ctrip (GeneID 40596) [DRSC23512], what does the deposit list?
firefly reporter light, replicate 1: 1.31e6; firefly reporter light, replicate 2: 1.29e6; Renilla control light, replicate 1: 6.48e5; Renilla control light, replicate 2: 6.61e5; outcome: inactive

For ctrip (GeneID 40596) [DRSC27589], what was measured?
firefly reporter light, replicate 1: 2.30e5; firefly reporter light, replicate 2: 1.71e5; Renilla control light, replicate 1: 4.50e5; Renilla control light, replicate 2: 6.77e5; outcome: inactive

With Neos (GeneID 38795) [DRSC11235], what was measured?
firefly reporter light, replicate 1: 8.20e5; firefly reporter light, replicate 2: 8.31e5; Renilla control light, replicate 1: 1.28e6; Renilla control light, replicate 2: 1.43e6; outcome: inactive

What is on record for CG11658 (GeneID 39319) [DRSC09852]?
firefly reporter light, replicate 1: 1.70e5; firefly reporter light, replicate 2: 85126; Renilla control light, replicate 1: 2.63e6; Renilla control light, replicate 2: 1.63e6; outcome: inactive

For asRNA:CR17025 (GeneID 12797896) [DRSC28651], how do the results read?
firefly reporter light, replicate 1: 4.51e5; firefly reporter light, replicate 2: 4.47e5; Renilla control light, replicate 1: 1.41e6; Renilla control light, replicate 2: 1.25e6; outcome: inactive

For CG17380 (GeneID 42766) [DRSC15230], what was measured?
firefly reporter light, replicate 1: 2.55e5; firefly reporter light, replicate 2: 2.53e5; Renilla control light, replicate 1: 2.77e6; Renilla control light, replicate 2: 3.08e6; outcome: inactive

A stretch from the list above:
ctrip (GeneID 40596) [DRSC23512] → firefly reporter light, replicate 1: 1.31e6; firefly reporter light, replicate 2: 1.29e6; Renilla control light, replicate 1: 6.48e5; Renilla control light, replicate 2: 6.61e5; outcome: inactive
ctrip (GeneID 40596) [DRSC27589] → firefly reporter light, replicate 1: 2.30e5; firefly reporter light, replicate 2: 1.71e5; Renilla control light, replicate 1: 4.50e5; Renilla control light, replicate 2: 6.77e5; outcome: inactive

More reagents follow.
For Mical (GeneID 41225) [DRSC14349], what was measured?
firefly reporter light, replicate 1: 88878; firefly reporter light, replicate 2: 86940; Renilla control light, replicate 1: 1.57e6; Renilla control light, replicate 2: 1.49e6; outcome: inactive

How did the screen score Mical (GeneID 41225) [DRSC14351]?
firefly reporter light, replicate 1: 1.19e5; firefly reporter light, replicate 2: 1.57e5; Renilla control light, replicate 1: 1.97e6; Renilla control light, replicate 2: 2.52e6; outcome: inactive

Which result is listed for Mical (GeneID 41225) [DRSC15365]?
firefly reporter light, replicate 1: 91539; firefly reporter light, replicate 2: 1.23e5; Renilla control light, replicate 1: 1.59e6; Renilla control light, replicate 2: 1.56e6; outcome: inactive

With Mical (GeneID 41225) [DRSC15366], what was measured?
firefly reporter light, replicate 1: 1.18e5; firefly reporter light, replicate 2: 1.75e5; Renilla control light, replicate 1: 2.83e6; Renilla control light, replicate 2: 2.90e6; outcome: inactive

What is on record for mRNA-cap (GeneID 32379) [DRSC19789]?
firefly reporter light, replicate 1: 3.38e5; firefly reporter light, replicate 2: 3.42e5; Renilla control light, replicate 1: 1.84e6; Renilla control light, replicate 2: 2.20e6; outcome: inactive

Which result is listed for mRNA-cap (GeneID 32379) [DRSC36813]?
outcome: inactive

What did the screen give for mRNA-cap (GeneID 32379) [DRSC36814]?
outcome: inactive

With Sdr (GeneID 41809) [DRSC15517], what was measured?
firefly reporter light, replicate 1: 77647; firefly reporter light, replicate 2: 1.04e5; Renilla control light, replicate 1: 5.35e5; Renilla control light, replicate 2: 4.30e5; outcome: inactive

For Sdr (GeneID 41809) [DRSC36929], what was measured?
outcome: inactive

For Sdr (GeneID 41809) [DRSC36930], what does the deposit list?
outcome: inactive
